Reference: PubChem BioAssay AID1671190 (National Center for Advancing Translational Sciences (NCATS), 2021)
Hit rate of the full screen: of about 580,000 compounds, about 6,100 (1.1%) were called active. Inconclusive means that the source gave no clear call. Such entries were picked first, then a sample of the others. Calls follow the shape of the dose curve; as a rule, active = well fitted inhibition curve with a large enough effect; inconclusive = small, poorly fitted or top-dose-only effect, or another doubt; inactive = no such curve, though single readings can be large or run the other way. Potencies of inconclusive entries are doubtful fits and often do not repeat.

Protein sequences, listed by entry. Tags and fused reporters are not part of them.
UniProt P18054, whole entry, looked up: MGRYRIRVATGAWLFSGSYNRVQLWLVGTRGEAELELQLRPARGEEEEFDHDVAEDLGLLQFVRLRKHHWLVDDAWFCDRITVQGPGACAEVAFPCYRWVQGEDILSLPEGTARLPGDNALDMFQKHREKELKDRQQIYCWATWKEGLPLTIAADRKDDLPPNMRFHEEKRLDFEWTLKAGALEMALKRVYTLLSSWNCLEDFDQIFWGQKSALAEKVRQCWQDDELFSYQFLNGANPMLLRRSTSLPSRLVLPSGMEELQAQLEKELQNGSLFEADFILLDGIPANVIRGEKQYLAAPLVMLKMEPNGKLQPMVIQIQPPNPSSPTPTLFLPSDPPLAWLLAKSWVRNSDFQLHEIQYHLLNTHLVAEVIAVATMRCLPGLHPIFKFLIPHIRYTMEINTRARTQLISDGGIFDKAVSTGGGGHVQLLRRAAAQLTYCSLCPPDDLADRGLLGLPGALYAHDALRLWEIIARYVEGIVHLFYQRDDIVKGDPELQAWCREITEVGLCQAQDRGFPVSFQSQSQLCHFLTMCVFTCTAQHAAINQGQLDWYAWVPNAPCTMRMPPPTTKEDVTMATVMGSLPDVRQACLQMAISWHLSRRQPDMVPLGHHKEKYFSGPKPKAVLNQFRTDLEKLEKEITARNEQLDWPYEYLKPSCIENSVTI

target: Polyunsaturated fatty acid lipoxygenase ALOX12 (Homo sapiens) (UniProt P18054); experiment: Primary qHTS assay for inhibitors of human arachidonate 12S-lipoxygenase (ALOX12): Round 2; settings: purified 12hLO, xylenol orange hydroperoxide absorbance; activity change, negative = inhibition: at 108 µM (top of the series) unless noted
Summary of the method: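 Purified human 12hLO at 150 nM in 25 mM Hepes, 0.01% Triton X-100, pH 7.0, preincubated 15 min at room temperature with compound. Reaction started with 40 uM arachidonic acid, 30 min at room temperature. Hydroperoxide measured by Fe-xylenol orange, 573/405 nm absorbance ratio.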
% is scaled to controls: 0 for no effect and ±100 for the full control effect; potency is read from the fitted curve at half-maximal effect.

Question: With `Cc1noc(NS(=O)(=O)c2ccc(NC(=O)c3cnc4n(c3=O)CCS4)cc2)c1C` as the compound, how does the Potency read?
Answer: Its Potency is inconclusive: 12.6 µM [inhibitor, full curve].

Question: `CCCCn1c(=O)[nH]c(=O)c2c1nc(COC(=O)c1cc(C)cc(C)c1)n2CCC` was tested. Which Potency did it give?
Answer: Its Potency is inconclusive: 56.2 µM [inhibitor, single point].

Question: `Cc1ccc(-c2ncc(C(=O)N3CCOC(CCN)C3)c(=O)[nH]2)cc1` (stereo not given) was tested. Which Potency did it give?
Answer: The Potency was inconclusive: 11.2 µM [inhibitor, full curve, poor fit].

Question: For `NS(=O)(=O)c1ccc(NC(=S)NC2CCCCC2)cc1`, which Potency is on record?
Answer: Its Potency is inconclusive: 89.1 µM [inhibitor, partial curve, poor fit].

Question: `O=C(NNS(=O)(=O)c1ccc([N+](=O)[O-])cc1)c1ccc([N+](=O)[O-])cc1` was tested. Which Potency did it give?
Answer: Its Potency is “inactive”.

Question: `CC(C)CC(=O)N1CCC2(CC1)N(C)C(=O)CS2(=O)=O` was tested. Which Potency did it give?
Answer: The Potency was “inactive”.

Question: `CCc1c(C)sc(NC(=O)c2ccc(F)cc2)c1C#N` was tested. Which Potency did it give?
Answer: The Potency was inconclusive: 11.2 µM [inhibitor, full curve].

Question: For `CCCCC(=O)OCc1c(C(=O)OCC)sc(N)c1C#N`, which Potency is on record?
Answer: Its Potency is inconclusive: 39.8 µM [inhibitor, partial curve, poor fit].

Question: For `COc1ccccc1-c1cc(-c2ccc(O)cc2)nc(N)c1C#N`, which Potency is on record?
Answer: The Potency was inconclusive: 79.4 µM [inhibitor, partial curve, poor fit].

Question: Which Potency does the source give for `CCc1nc(N2CCOCC2)ncc1C(=O)O` here?
Answer: Its Potency is inconclusive: 8.91 µM [inhibitor, full curve].

Question: For `CCSC(C)CC1C/C(=N/O)c2c(CC)noc2C1` (stereo not given), which Potency is on record?
Answer: Its Potency is “inactive”.

Question: Which activity change, negative = inhibition does the source give for `CCOC(=O)C1CCCN(C(=O)Cn2c(=O)cc(C)c3c(C)nn(C)c32)C1` (stereo not given) here?
Answer: Its activity change, negative = inhibition is inconclusive: -33.3% [inhibitor].

Question: With `O=C(COC(=O)c1cncc(Br)c1)NCCC1=CCCCC1` as the compound, how does the Potency read?
Answer: The Potency was inconclusive: 35.5 µM [inhibitor, single point].

Question: Which Potency does the source give for `Cc1sc2nc(N)sc2c1C` here?
Answer: The Potency was inconclusive: 44.7 µM [inhibitor, single point].

Question: How did the Potency turn out when `O=C1CCCCCC1Sc1nccc(C(F)(F)F)n1` (stereo not given) was run?
Answer: Its Potency is “inactive”.

Question: With `Cc1ccc(C(=O)N(C)CC(=O)Nc2ccc(Cl)c(C(F)(F)F)c2)cc1S(=O)(=O)N1CCCCC1` as the compound, how does the Potency read?
Answer: The Potency was “inactive”.

Question: How did the Potency turn out when `CC(C)c1cc(C(=O)O)n[nH]1` was run?
Answer: The Potency was inconclusive: 0.631 µM [inhibitor, full curve, poor fit].

Question: `COc1cc(OC)nc(Nc2nc(C(N)CCc3ccccc3)cs2)n1` (stereo not given) was tested. Which Potency did it give?
Answer: The Potency was inconclusive: 89.1 µM [inhibitor, partial curve, poor fit].

Question: How did the Potency turn out when `CCc1ccc2c(c1)C(NC(C)=O)C(=O)N2CCN1CCOCC1` (stereo not given) was run?
Answer: The Potency was active: 44.7 µM.

Question: With `O=C(/C=C/c1ccc(Cl)cc1)NC(=S)Nc1ccc(C(=O)O)cc1` as the compound, how does the Potency read?
Answer: Its Potency is inconclusive: 5.62 µM [inhibitor, full curve, poor fit].

Question: Which Potency does the source give for `CCc1nncn1C1CCN(S(=O)(=O)c2ccc(OC)c(Cl)c2)CC1` here?
Answer: Its Potency is “inactive”.

Question: With `CCC(C)c1ccc(NC(=S)Nc2ccc(OC)cc2C)cc1` (stereo not given) as the compound, how does the Potency read?
Answer: Its Potency is inconclusive: 50.1 µM [inhibitor, partial curve, poor fit].

Question: Which Potency does the source give for `Cn1cnnc1SCC(=O)c1cc2ccccc2oc1=O` here?
Answer: The Potency was active: 6.31 µM.

Question: `NNC(=O)c1cnn(-c2ccccc2)c1-n1cccc1` was tested. Which Potency did it give?
Answer: The Potency was “inactive”.

Question: How did the Potency turn out when `CN(C)c1ccc(C=Nc2ccccc2C(N)=O)cc1` was run?
Answer: Its Potency is inconclusive: 44.7 µM [inhibitor, partial curve, poor fit].

Question: With `CC(C)c1ccc(S(=O)(=O)N2CCN(c3nc(-c4cccnc4)nc4ccccc34)CC2)cc1` as the compound, how does the Potency read?
Answer: Its Potency is “inactive”.

Question: `O=C(COC(=O)c1cc([N+](=O)[O-])ccc1N1CCOCC1)c1ccccc1` was tested. Which Potency did it give?
Answer: The Potency was inconclusive: 44.7 µM [inhibitor, partial curve, poor fit].

Question: `Cc1ccc(CN2C(=O)C(O)(CC(=O)c3ccc(C)cc3)c3ccccc32)cc1` (stereo not given) was tested. Which Potency did it give?
Answer: The Potency was inconclusive: 39.8 µM [inhibitor, partial curve, poor fit].

Question: For `CCNC(=O)CC1C(=O)N(c2cccc(C)c2)C(=O)N1CCC(C)C` (stereo not given), which Potency is on record?
Answer: The Potency was inconclusive: 50.1 µM [inhibitor, single point].

Question: For `O=C(/C=C/c1ccc2c(c1)OCCCO2)c1ccccc1O`, which Potency is on record?
Answer: Its Potency is “inactive”.

Question: What does the source list for `CCCCCC#CCC#CCC#CCC#CCCCC(=O)O`?
Answer: Potency: inconclusive: 7.08 µM [inhibitor, full curve, poor fit]; activity change, negative = inhibition: inactive: 0.332% [at 12.5 µM]

Question: `Clc1ccccc1C(c1nnnn1Cc1ccco1)N1CCN(Cc2ccco2)CC1` (stereo not given) was tested. Which Potency did it give?
Answer: The Potency was active: 44.7 µM.

Question: For `CS(=O)(=O)CCC(NS(=O)(=O)/C=C/c1ccccc1)C(=O)O` (stereo not given), which Potency is on record?
Answer: Its Potency is inconclusive: 6.31 µM [inhibitor, full curve, poor fit].

Question: With `O=C(c1n[nH]c2c1CCCC2)N1CCC2(CC1)NC(=O)N(c1ccccc1)N2` as the compound, how does the Potency read?
Answer: Its Potency is inconclusive: 8.91 µM [inhibitor, full curve, poor fit].

Question: Which Potency does the source give for `CCCCCC(=O)Nc1nc2c(s1)C[C@@H]1[C@](C)(CO)[C@H](O)CC[C@@]1(C)[C@@H]2CC(=O)O` here?
Answer: Its Potency is inconclusive: 7.94 µM [inhibitor, full curve].

Question: Which Potency does the source give for `CC(=O)N1CCN(C(=O)C(=O)Nc2cccc3[nH]ccc23)CC1` here?
Answer: Its Potency is inconclusive: 50.1 µM [inhibitor, partial curve, poor fit].

Question: Which Potency does the source give for `CCCCN(C)S(=O)(=O)c1ccc(C(=O)N(CCN(C)C)c2nc3ccc(C)cc3s2)cc1` here?
Answer: The Potency was “inactive”.

Question: With `COc1cccc(CNC(=S)Nc2ccc3c(c2)c(=O)n(C)n3Cc2ccc(F)cc2)c1` as the compound, how does the Potency read?
Answer: The Potency was inconclusive: 50.1 µM [inhibitor, partial curve, poor fit].

Question: For `CCc1nnc(NC(=O)Nc2ccccc2OC)s1`, which Potency is on record?
Answer: The Potency was inconclusive: 7.08 µM [inhibitor, full curve, poor fit].

Question: With `C=CCn1c(SCC(=O)NC(=O)NC)nnc1C1CCCCC1` as the compound, how does the Potency read?
Answer: The Potency was “inactive”.

Question: For `O=C(CSc1nnc2scc(-c3ccccc3)n12)Nc1nsc(-c2ccc(Cl)cc2)n1`, which Potency is on record?
Answer: Its Potency is “inactive”.

Question: `CCOC(=O)C1CCN(c2ccc([N+](=O)[O-])c(C(C)=O)c2)CC1` was tested. Which Potency did it give?
Answer: Its Potency is inconclusive: 56.2 µM [inhibitor, partial curve, poor fit].

Question: Which Potency does the source give for `CCOc1ccc(Nc2c3ccccc3nc3ccccc23)cc1` here?
Answer: Its Potency is inconclusive: 44.7 µM [inhibitor, partial curve, poor fit].

Question: With `COc1cc(NS(=O)(=O)c2ccc(NC(=S)NC(=O)C(C)(C)C)cc2)nc(OC)n1` as the compound, how does the Potency read?
Answer: The Potency was inconclusive: 25.1 µM [inhibitor, partial curve, poor fit].
